# Test results as given in US8709764B2, “Enzymatic demethylation of flavonoids” (Universiteit Gent, priority 2005, dated 2014).
# Test system: human fecal cultures
# Test: Incubation of IX with human fecal cultures (E-L; 51 fecal samples) for 3 days
# Type: in vitro ADME
# Details: 25 mg/l IX
# Description: Fecal slurries of 20% (w/v) fresh fecal samples were prepared by homogenizing the feces with phosphate buffered saline (0.1 M, pH 7) containing 1 g/l sodiumthioglycolate as reducing agent. The particulate material was removed by centrifugation (1 min, 500×g). The supernatant is hereafter called “the culture”.
# But not all cultures were able to perform this reaction. Therefore, the remaining cultures E-L (10% (v/v)) were incubated for 3 days in Brain Heart Infusion broth (with 0.5 g/l cystein-HCl) under anaerobic conditions with 25 mg/l IX (FIG. 4).
# To further investigate these inter-individual differences, a total of 51 fecal samples were incubated for 3 days in Brain Heart Infusion broth (with 0.5 g/l cystein-HCl) under anaerobic conditions, containing 25 mg/l IX (FIG. 5). The results are presented as % 8-PN production relative to the incubated IX concentration and samples were ordered by increasing 8-PN production capacity.
smiles,measurement,value
"COc1cc(O)c(CC=C(C)C)c2c1C(=O)C[C@@H](c1ccc(O)cc1)O2 [IX, 5-O-methyl-8-prenylnaringenin]",Share of individuals that are high 8-PN producers (group c),16%
same,Share of individuals that are moderate 8-PN producers (group b),22%
same,Share of individuals that are slow 8-PN producers (group a),63%
